± gives the standard deviation. The entries are a selection whose mix differs from that of the whole data set. The uncertainty is large for many entries. Some results are limits rather than exact numbers.

This test deals with MILI (PIWIL2) piRISC loaded with piRNA #1 (26 nt). In words: pre-steady-state target cleavage rate (min^-1); MIWI and MILI are mouse PIWI proteins and EfPiwi is from a freshwater sponge; tags in brackets are library labels; higher = faster piRNA-guided slicing of the target. To be noted: guide: piRNA #1 5'p-UGAGGUAGUAGGUUGUAUAGUAUCCA; auxiliary factor: 500 nM mouse GTSF1. The gist of the method:
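Active affinity-purified piRISC (1 nM) loaded with one synthetic guide was mixed with a transcribed, DNA-blocked target RNA library (0.1 nM), with or without 500 nM GTSF1 partner protein, in HEPES–potassium acetate buffer at 33 °C for 0–8 or 0–960 min. Uncleaved targets were sequenced, normalised to depth and to weakly complementary targets, and pooled across three trials, with k3 capped at 0.0001 min^-1. The pre-steady-state cleavage rate was determined with a burst-and-steady-state fit.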
For GGAGACCUAUGAUAUGUUCCUUCAACCUCA, the “pre-steady-state target cleavage rate” value was found to be 0.000119 ± 0.027.

GGAGACGAUACUAUACAACCUACCUACCUCA: the “pre-steady-state target cleavage rate” value amounted to 0.131 ± 0.011.

With GGAGACCUAUGAUAUGUUGCCUACUACCUCA, the “pre-steady-state target cleavage rate” value stood at 0.000112 ± 0.033.

In the case of GGAGACGAUACUAUACAACCUUACUACCUCA, the “pre-steady-state target cleavage rate” value turned out to be 0.00239 ± 0.0042.

For the sequence GGAGUGGAUACUAUACAACCUUCUACCUGA, the “pre-steady-state target cleavage rate” value was 0.00123 ± 0.0032.

In the case of GGAGACCUAUGUAUACAACCUACGACCUCA, the “pre-steady-state target cleavage rate” value was 0.0402 ± 0.0075.

GGAGAGGAUACUAUACAUCCUUCUACCUCA: the “pre-steady-state target cleavage rate” value came to 0.0216 ± 0.0041.

Turning to GGAGACCUAUGUAUACAACCUUCUACGUCA, the “pre-steady-state target cleavage rate” value was 0.00217 ± 0.0031.

As to GGAGACCUUACUAUACAACCUACUACCAGA, the “pre-steady-state target cleavage rate” value came to 0.107 ± 0.017.

As to GGAGACCUAUGAUAUCUACCUACAACCUCA, the “pre-steady-state target cleavage rate” value was 0.000385 ± 0.0076.

In the case of GGAGACCUAUGAUAUGUUGCACUACCUCA, the “pre-steady-state target cleavage rate” value worked out at 0.000126 ± 0.02.

In the case of GGAGACCUAUGAUAUGUUCCUACUAGCUCA, the “pre-steady-state target cleavage rate” value was less than 0.0001.

GGAGACCUAUGAAUAGAACCUACUACCUGA: the “pre-steady-state target cleavage rate” value came out at 0.00023 ± 0.014.

Take GGAGACCUAUGAAACAACCUACUACCUCA: the “pre-steady-state target cleavage rate” value came to 0.00673 ± 0.0031.

GGAGACCUAACUAUACAACCUUCUACCUGA: the “pre-steady-state target cleavage rate” value was 0.00115 ± 0.01.

Regarding GGAGUGGAUACUAUACUAGCUACUACCUCA, the “pre-steady-state target cleavage rate” value came out at 0.158 ± 0.011.

Turning to GGAGACCUAUGAUAUCUACCUACUACCUCA, the “pre-steady-state target cleavage rate” value amounted to 0.000308 ± 0.0076.

Regarding GGAGACCUAUGAUAACAACGUACUAGCUCA, the “pre-steady-state target cleavage rate” value was 0.000787 ± 0.01.

On to GGAGACCUAUGAUAUGUACCUAGUACCUGA, for which the “pre-steady-state target cleavage rate” value was 0.000102 ± 0.013.

Turning to “GGAGACCUAUGAUAUCAACCUACUAGGAGA [g6:g15:cont:t1A]”, the “pre-steady-state target cleavage rate” value is 0.000427 ± 0.011.

Turning to GGAGAGGAUACUAUACAACUCUACUACCUCA, the “pre-steady-state target cleavage rate” value was determined as 0.00124 ± 0.0047.

Regarding GGAGACGAUACUAUACAACCUACUACGAGA, the “pre-steady-state target cleavage rate” value was determined as 0.11 ± 0.034.

As to GGAGACCUAUCUAUACAACCUUCAACCUCA, the “pre-steady-state target cleavage rate” value came to 0.00235 ± 0.0036.

Turning to GGAGACGAAACUAUACAACCUACUACCUCA, the “pre-steady-state target cleavage rate” value stood at 0.172 ± 0.022.

For GGAGACGAUACUAUACAACCUACUACAUCA, the “pre-steady-state target cleavage rate” value stood at 0.0978 ± 0.015.

As to GGAGACCAUACUAUACAACCUAACUACCUCA, the “pre-steady-state target cleavage rate” value worked out at 0.0248 ± 0.0049.

For the sequence GGAGACCUUUCUAUUCAACCUACUACCUCA, the “pre-steady-state target cleavage rate” value turned out to be 0.0926 ± 0.012.

As to GGAGACCAUUGUAUACAACCUACUACCUCA, the “pre-steady-state target cleavage rate” value is 0.0325 ± 0.0067.

Turning to “GGAGACCUAUGAUUACAACGAUGAUGGAGA [g12:g17:cont:t1A]”, the “pre-steady-state target cleavage rate” value was determined as 0.000359 ± 0.011.

Consider GGAGACCUAUGAUAUGAACCAACUACCUGA, for which the “pre-steady-state target cleavage rate” value came to 0.000171 ± 0.014.

As to GGAGACCUAUGAUAUGUACCUACUUCCACA, the “pre-steady-state target cleavage rate” value came out at 0.000134 ± 0.021.

GGAGAGGAUACUAUACAACGCUACUACCUCA: the “pre-steady-state target cleavage rate” value came out at 0.00299 ± 0.0026.

Turning to “GGAGUGGAUACUAUACUUGGAUGAUGGAGA [g15:g26:cont:t1A]”, the “pre-steady-state target cleavage rate” value was 0.000185 ± 0.028.

In the case of GGAGACCUAACUAUACAACGAUCUACCUCA, the “pre-steady-state target cleavage rate” value came to 0.000107 ± 0.058.

GGAGACCAUACUAUACAUCCUACUACCACA: the “pre-steady-state target cleavage rate” value was found to be 0.279 ± 0.028.

As for GGAGACCAUUCUAUACAUCCUACUACCUCA, the “pre-steady-state target cleavage rate” value stood at 0.235 ± 0.019.

On to GGAGACCUAUCUUACAACCUACUACCUCA, for which the “pre-steady-state target cleavage rate” value worked out at 0.0336 ± 0.0082.

In the case of GGAGACCUUACUAUACAACCUACGACCUCA, the “pre-steady-state target cleavage rate” value came to 0.113 ± 0.012.

Take GGAGUGCAUACUAUACAACCUAGUACCUCA: the “pre-steady-state target cleavage rate” value was 0.0477 ± 0.0091.

In the case of GGAGAGGAUACUAUACAACCUUACUACCUCA, the “pre-steady-state target cleavage rate” value was determined as 0.00257 ± 0.0029.

The values above are taken from the supplement of paper PMC10338343.
